# Experimental data published in article PMC10265082.
# These are yes or no findings as the source states them, for the method shown. Binding seen in cells or lysates may run through a third protein. Some binding calls cover weakened binding; strength is not graded here.
# Target: HA-tagged HOOK1 (UniProt Q9UJC3)
# Assay: co-IP; anti-HA agarose on lysates of 293T cells exogenously expressing Flag- and HA-tagged HOOK1 and TNFSF13B; immunoblotting
substance,measurement,value
Flag-tagged TNFSF13B (from UniProt Q9Y275 1-285),binding,binds
